{"source": "PubChem BioAssay AID1259405 (NCATS, 2018)", "assay": "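Silenced genes that increase secreted GFP made by CHO cells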 (primary screen)", "system": "Chinese hamster CHO-K1 ovary cells with stable secreted eGFP expression", "reagent": "single siRNA against mouse genes, 0.8 pmol siRNA per well (2 µl of 400 nM stock)", "timing": "3 days", "measurement": "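Per-well intracellular GFP measured by laser scanning cytometry, plus viability from ATP luminescence, each relative to plate median of non-targeting control wells, in %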", "direction": "GFP, % of control: higher = more GFP per well, higher productivity; viability (ATP), % of control: higher = more viable cells (more ATP)", "call rule": "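a knock-down is called active if GFP reaches 120% or more of non-targeting control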", "note": "Here is one part, drawn at random, of about 50,000 reagents. About 4,000 of all reagents (8%) were called active. 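Mouse siRNA library applied to hamster cells; one well for each siRNA.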 The numbers tell different reagents against one gene apart."}
{"gene knocked down": "Ccnb3", "siRNA no.": 1, "GFP, % of control": 78.6, "viability (ATP), % of control": 87, "Call": "inactive"}
{"gene knocked down": "Ccnb3", "siRNA no.": 2, "GFP, % of control": 94.4, "viability (ATP), % of control": 81.3, "Call": "inactive"}
{"gene knocked down": "Or11h4b", "siRNA no.": 1, "GFP, % of control": 89.3, "viability (ATP), % of control": 55.7, "Call": "inactive"}
{"gene knocked down": "Or11h4b", "siRNA no.": 2, "GFP, % of control": 58.1, "viability (ATP), % of control": 81.6, "Call": "inactive"}
{"gene knocked down": "Or11h4b", "siRNA no.": 3, "GFP, % of control": 74, "viability (ATP), % of control": 50.5, "Call": "inactive"}
{"gene knocked down": "Smad1", "siRNA no.": 1, "GFP, % of control": 35.9, "viability (ATP), % of control": 25.9, "Call": "inactive"}
{"gene knocked down": "Smad1", "siRNA no.": 2, "GFP, % of control": 62.3, "viability (ATP), % of control": 72.4, "Call": "inactive"}
{"gene knocked down": "Smad1", "siRNA no.": 3, "GFP, % of control": 120, "viability (ATP), % of control": 84.1, "Call": "inactive"}
{"gene knocked down": "Icam4", "siRNA no.": 1, "GFP, % of control": 24, "viability (ATP), % of control": 25.9, "Call": "inactive"}
{"gene knocked down": "Icam4", "siRNA no.": 2, "GFP, % of control": 58.6, "viability (ATP), % of control": 58.5, "Call": "inactive"}
{"gene knocked down": "Icam4", "siRNA no.": 3, "GFP, % of control": 67.7, "viability (ATP), % of control": 52.3, "Call": "inactive"}
{"gene knocked down": "Mcm8", "siRNA no.": 1, "GFP, % of control": 118, "viability (ATP), % of control": 129, "Call": "inactive"}
{"gene knocked down": "Mcm8", "siRNA no.": 2, "GFP, % of control": 83.2, "viability (ATP), % of control": 49.9, "Call": "inactive"}
{"gene knocked down": "Mcm8", "siRNA no.": 3, "GFP, % of control": 22.4, "viability (ATP), % of control": 73.1, "Call": "inactive"}
{"gene knocked down": "Usp24", "siRNA no.": 1, "GFP, % of control": 115, "viability (ATP), % of control": 64.4, "Call": "inactive"}
{"gene knocked down": "Usp24", "siRNA no.": 2, "GFP, % of control": 43.4, "viability (ATP), % of control": 77.2, "Call": "inactive"}
{"gene knocked down": "Usp24", "siRNA no.": 3, "GFP, % of control": 58.6, "viability (ATP), % of control": 54.1, "Call": "inactive"}
{"gene knocked down": "Cntf", "siRNA no.": 1, "GFP, % of control": 66, "viability (ATP), % of control": 28.6, "Call": "inactive"}
{"gene knocked down": "Cntf", "siRNA no.": 2, "GFP, % of control": 125, "viability (ATP), % of control": 92, "Call": "active"}
{"gene knocked down": "Cntf", "siRNA no.": 3, "GFP, % of control": 62.8, "viability (ATP), % of control": 64.6, "Call": "inactive"}
{"gene knocked down": "Catsper2", "siRNA no.": 1, "GFP, % of control": 30.4, "viability (ATP), % of control": 28.8, "Call": "inactive"}
{"gene knocked down": "Catsper2", "siRNA no.": 2, "GFP, % of control": 48.9, "viability (ATP), % of control": 65.4, "Call": "inactive"}
{"gene knocked down": "Catsper2", "siRNA no.": 3, "GFP, % of control": 89.9, "viability (ATP), % of control": 80, "Call": "inactive"}
{"gene knocked down": "Synpo2", "siRNA no.": 1, "GFP, % of control": 91.3, "viability (ATP), % of control": 54.5, "Call": "inactive"}
{"gene knocked down": "Synpo2", "siRNA no.": 2, "GFP, % of control": 50.1, "viability (ATP), % of control": 49, "Call": "inactive"}
{"gene knocked down": "Synpo2", "siRNA no.": 3, "GFP, % of control": 54.4, "viability (ATP), % of control": 61.7, "Call": "inactive"}
{"gene knocked down": "Pex19", "siRNA no.": 1, "GFP, % of control": 74.8, "viability (ATP), % of control": 49.6, "Call": "inactive"}
{"gene knocked down": "Pex19", "siRNA no.": 2, "GFP, % of control": 54.8, "viability (ATP), % of control": 47, "Call": "inactive"}
{"gene knocked down": "Pex19", "siRNA no.": 3, "GFP, % of control": 88.4, "viability (ATP), % of control": 101, "Call": "inactive"}
{"gene knocked down": "Kng1", "siRNA no.": 1, "GFP, % of control": 73.5, "viability (ATP), % of control": 73.8, "Call": "inactive"}
{"gene knocked down": "Kng1", "siRNA no.": 2, "GFP, % of control": 85.9, "viability (ATP), % of control": 96, "Call": "inactive"}
{"gene knocked down": "Kng1", "siRNA no.": 3, "GFP, % of control": 58.2, "viability (ATP), % of control": 40.6, "Call": "inactive"}
{"gene knocked down": "1700128F08Rik", "siRNA no.": 1, "GFP, % of control": 56.1, "viability (ATP), % of control": 49.1, "Call": "inactive"}
{"gene knocked down": "1700128F08Rik", "siRNA no.": 2, "GFP, % of control": 50.3, "viability (ATP), % of control": 18.3, "Call": "inactive"}
{"gene knocked down": "1700128F08Rik", "siRNA no.": 3, "GFP, % of control": 81.4, "viability (ATP), % of control": 62.1, "Call": "inactive"}
{"gene knocked down": "Exosc8", "siRNA no.": 1, "GFP, % of control": 111, "viability (ATP), % of control": 106, "Call": "inactive"}
{"gene knocked down": "Exosc8", "siRNA no.": 2, "GFP, % of control": 39.3, "viability (ATP), % of control": 46, "Call": "inactive"}
{"gene knocked down": "Exosc8", "siRNA no.": 3, "GFP, % of control": 58.9, "viability (ATP), % of control": 86.5, "Call": "inactive"}
{"gene knocked down": "Aox1", "siRNA no.": 1, "GFP, % of control": 86.9, "viability (ATP), % of control": 122, "Call": "inactive"}
{"gene knocked down": "Aox1", "siRNA no.": 2, "GFP, % of control": 51.6, "viability (ATP), % of control": 76.1, "Call": "inactive"}

2 of these entries, set out differently:
Cntf #2
- GFP, % of control: 125
- viability (ATP), % of control: 92
- Call: active

Cntf #3
- GFP, % of control: 62.8
- viability (ATP), % of control: 64.6
- Call: inactive
